Data as given in patent US5969210.

Protein sequences, listed by entry. Tags and fused reporters are not part of them. Lines headed by an entry give the natural chain unless they say otherwise; changes in a name come on top.
UniProt P22415: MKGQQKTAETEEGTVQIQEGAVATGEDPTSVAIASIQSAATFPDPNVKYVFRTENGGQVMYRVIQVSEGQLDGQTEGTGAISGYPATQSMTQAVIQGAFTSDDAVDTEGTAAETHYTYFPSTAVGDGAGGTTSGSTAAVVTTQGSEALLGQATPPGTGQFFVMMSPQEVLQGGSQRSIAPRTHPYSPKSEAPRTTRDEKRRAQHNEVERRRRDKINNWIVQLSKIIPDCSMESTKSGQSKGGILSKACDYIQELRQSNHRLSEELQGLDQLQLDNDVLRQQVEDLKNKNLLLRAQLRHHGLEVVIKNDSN

Key:
[1] = system: BETA-2/E47 (E2A) heterodimer (HIT-T15 nuclear extract); assay: competition with a labelled probe; conditions: 100-fold excess mutant does not compete; protein in an extract; variant of B element WT
[2] = system: BETA-2/E47 (E2A) heterodimer (HIT-T15 nuclear extract); assay: EMSA; conditions: slowest complex blocked by BETA-2 or E2A antisera; protein in an extract; label: 32P
[3] = molecular target: T1, HNF-3alpha (recombinant) (UniProt P23512); assay: footprint; conditions: hypersensitive site interrupting H element footprint; SEQ:2 is the full enhancer, probe is a sub-range; purified recombinant protein; protein details: gift of K. Zaret; label: 32P
T1 sequence (looked up, limits assumed): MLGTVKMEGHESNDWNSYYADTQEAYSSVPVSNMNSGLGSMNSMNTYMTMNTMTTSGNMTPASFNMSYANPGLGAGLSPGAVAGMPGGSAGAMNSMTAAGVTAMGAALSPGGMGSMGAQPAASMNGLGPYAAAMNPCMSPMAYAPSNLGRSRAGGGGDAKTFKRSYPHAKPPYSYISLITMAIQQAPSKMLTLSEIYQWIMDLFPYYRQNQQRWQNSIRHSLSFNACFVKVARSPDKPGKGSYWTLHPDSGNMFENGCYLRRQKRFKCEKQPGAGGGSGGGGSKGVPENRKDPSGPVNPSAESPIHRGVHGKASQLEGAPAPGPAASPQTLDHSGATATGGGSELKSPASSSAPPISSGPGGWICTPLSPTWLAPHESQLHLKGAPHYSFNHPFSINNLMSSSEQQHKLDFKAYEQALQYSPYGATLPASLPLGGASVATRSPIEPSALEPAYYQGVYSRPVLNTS

[4] = molecular target: USF-1 (recombinant) (UniProt P22415); assay: footprint; conditions: DNase I protection coincides with HIT extract footprint; SEQ:1 is the full 5' flank, probe is a sub-range; purified recombinant protein; label: 32P

“TCAGTGAAAGACGGAGTCCT (double strand) [B element MT]”: no binding [1].

“TCAGTGACAGATGGAGTCCT (double strand) [B element WT]”: binds [2].

“TCTAGAGAGTTCTCCTGTTCGCTAGATAAGAAAGCCTGTTCTGCCATCCCAGCAGGCATAGGCTGTTTAAGTTACTAGATAACAGAGTTGTTATTGATTCTATTATTATTATTTTTTCTACTCTTCCTGATTCCCTGAAGTCCAAGGGAAGTTTTGTCAACTAGGAATGATTTTTGTTTAAAAAAAAAAAAAAAAGGCTCCTTGTTGTGTCTTAGCTGGTCAGTGACAGATGGAGTCCTGAGTTTCCTAGGAGCCCTTTACTCAGGAGTGGGAGAACAGAAAGTAAATAAGCGCTCTTAGTCATCTGCTTTCTCAGAGCAGCGTTGGGCCCCAGCACTTGGAAAGCGAATGCTGGCTCCTCCTGGACTCCCCCGTCAGCCTGATGTTGTTAACCCGTTTAACATTCCCTTATCACATGCTCATTGTGGGCAGAATTAAGTGGAATTAGCTAACAAATTATATAAAATTCATTTACCTTTCAAGGAAGCTG (double strand) [STF-1 enhancer fragment -6100 to -5870]”: binds [3].

“TTAAGCTCTAATGGAGCGGTTTTGTAACGGAGTAAAGGTTCTGATATTTTTGCGCTCCCCGGTTTGGAGAGCTCCGCAGCAGGACAGGAGAGATCAGCCTGCTGAGAGAGAAAATTGAAACAAGTGCAGGTGTTCGCGGGCCTGGGCCTCCTTCTTAAGGCAGGGCCAGGCCAATGGTGGCCCCAGGCTGAACCACGTGGGGTGCCTCAGAGCCTATGGCACGGCGACCGGCTTCTCTGTCTCTCGCCAGCCTGTGGTTCCCCGGGAGAGCAGTGGAGAACTGTCAAAGCGATCTGGGGTGGCGCTGAGAGTCCGTGAGCTGCCAGCGCCTTAAGGCCTGGCTTGTAGCTCCCTACCCCGGGCTGCCGGCCCCGAAGTGCCGGCTGCCACCATGAATAGTGAG (double strand) [STF-1 promoter fragment -182 to -37]”: binds [4].

For some of these results: Results from cells or extracts need not show a direct contact. For some of these results: No signal at the amounts used counts as a negative. For some of these results: Construct, isoform or probe ends are uncertain for at least one entry. For some of these results: Tags and fusion partners may be left off the protein sequences shown.
